These are yes or no findings as the source states them, for the method shown. In cells and extracts the contact can be indirect. Some entries that bind do so weakly or less than the wild type. Where a sequence is shown, tags or fusion partners need not be part of it.

Experimental findings from article PMC5514026 are described below.

This assay has as its target T1, GFP-tagged XBP1s WT (mouse, full length) (mouse) (UniProt O35426).
T1 sequence: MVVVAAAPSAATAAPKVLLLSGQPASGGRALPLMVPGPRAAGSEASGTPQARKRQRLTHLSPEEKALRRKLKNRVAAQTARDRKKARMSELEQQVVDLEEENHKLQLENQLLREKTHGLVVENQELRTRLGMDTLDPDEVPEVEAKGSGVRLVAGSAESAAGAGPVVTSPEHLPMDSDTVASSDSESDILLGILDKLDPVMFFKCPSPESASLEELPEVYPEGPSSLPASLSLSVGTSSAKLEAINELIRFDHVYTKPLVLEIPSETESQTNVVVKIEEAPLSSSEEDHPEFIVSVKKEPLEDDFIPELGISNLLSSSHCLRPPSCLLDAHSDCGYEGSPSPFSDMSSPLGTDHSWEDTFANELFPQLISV
Put plainly: co-IP; HEK293 cells co-transfected with HA-CDK5 and GFP-XBP1s WT plasmids, collected 24 h after transfection; immunoprecipitation with GFP antibody, western blot with HA antibody. In general terms: A western blot detects proteins with antibodies after separation by electrophoresis.

With “HA-tagged CDK5 (from UniProt P49615 1-292) (enzyme)”, the binding result is “binds”.
